PubChem BioAssay AID1259415 (National Center for Advancing Translational Sciences (NCATS), 2018)
Screen size: about 410,000 compounds; about 18,000 (4.4%) were called active. The shares of active, inactive and inconclusive entries below differ from those in the screen. Cut-off read from the data, not from the text of the source: active = activity change below about -60%; inconclusive = no clear call, values can overlap the other calls; inactive = above about -39%.
% is set by controls: 0 for no effect and ±100 for the full control effect.

Assay: qHTS Assay for inhibitors of the human cytomegalovirus (HCMV)
Conditions: HFF cells, HCMV-luciferase reporter, 72 h; at 57.5 µM; hits give low values
Summary of the method: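 Inhibition of viral replication was scored as loss of reporter luminescence in HFFs infected with HCMV-luciferase (MOI 1 PFU/cell) for 72 h; compounds tested at 2 doses, normalized to buffer and Salinomycin controls.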
For `CN(C)CCCN(C(=O)c1ccc2c(c1)OCCO2)c1nc2ccccc2s1`, the activity change, negative = inhibition was inconclusive: -52.9%. With `COc1cccc(CNC(=O)CSc2c3c(nc4cc(Cl)ccc24)CCCC3)c1` the activity change, negative = inhibition was inconclusive: -57.3%. In the case of `CC(C)(C)c1ccc(S(=O)(=O)NCC2CCN(C(=O)C(=O)c3cc4ccccc4o3)CC2)cc1`, the activity change, negative = inhibition was inconclusive: -49.8%. For `COc1ccc(C)cc1N(C(=O)c1snc(C(N)=O)c1N)C(C(=O)NC1CCCCC1)c1ccc(C)o1` (stereo not drawn), the activity change, negative = inhibition was inconclusive: -40.8%. For `COc1cccc(CC2(CO)CCCN(Cc3cc(F)ccc3-n3cccn3)C2)c1` (stereo not drawn), the activity change, negative = inhibition was inactive: -19.1%. In the case of `Cn1c(NC(=O)CC(C)(C)C)cc(=O)n(C)c1=O`, the activity change, negative = inhibition was inconclusive: -50.3%. With `Cc1cc(C)c(S(=O)(=O)c2ccc(Cl)cc2)c(Cl)n1` the activity change, negative = inhibition was inconclusive: -47.2%. In the case of `COC(=O)[C@]1(C#N)CC(=O)N([C@H](C)[C@@H](O)c2ccccc2)[C@@H]1c1ccccc1`, the activity change, negative = inhibition was inactive: -0.103%. In the case of `Cc1ccc(N2C(=O)CN(Cc3sccc3C)C2=S)cc1C`, the activity change, negative = inhibition was inconclusive: -47.7%. For `Cc1c(NC(C)c2ccccc2O)c(=O)n(-c2ccccc2)n1C` (stereo not drawn), the activity change, negative = inhibition was inactive: 70.6%. With `CC(C)(C)c1csc(NC(=O)c2ccncc2)n1` the activity change, negative = inhibition was inconclusive: -59.4%. For `Cc1nn(C(C)C(=O)Nc2sc3c(c2C#N)CCCC3)c(C)c1[N+](=O)[O-]` (stereo not drawn), the activity change, negative = inhibition was inconclusive: -43.9%. For `Cc1ccccc1OCC(=O)NC(=S)Nc1ccc2c3c(cccc13)CC2`, the activity change, negative = inhibition was inconclusive: -51.9%. In the case of `CCOC(=O)C/C(N)=N/NC(=O)c1ccc(Cl)cc1Cl`, the activity change, negative = inhibition was inconclusive: -43.7%. For `C/C(CC(=O)NC(C)C)=N\NC(=O)C(c1ccccc1)c1ccccc1`, the activity change, negative = inhibition was inconclusive: -58.7%. For `COc1cccc(/C=C/C(=O)NCCc2ccc3c(c2)OCCO3)c1`, the activity change, negative = inhibition was inconclusive: -46.8%. For `COc1ccc(/C(N)=N/OC(=O)CCCN2C(=O)c3ccccc3C2=O)cc1OC`, the activity change, negative = inhibition was inconclusive: -56.1%. In the case of `CN(C)S(=O)(=O)c1ccc(C(=O)Nc2nc(-c3cccs3)cs2)cc1`, the activity change, negative = inhibition was active: -81.2%. In the case of `COc1ccc(NC(=O)Cn2cnc3c(oc4ccccc43)c2=O)cc1OC`, the activity change, negative = inhibition was inactive: 9.46%. With `O=C(N[C@H]1CC[C@@]23CCCN2C(=O)CCC[C@H]3[C@H]1Cc1ccccc1)c1ccc(C(F)(F)F)cc1` the activity change, negative = inhibition was inactive: -0.857%. For `COc1ccc(Cn2c(=N)c(C(=O)NC3CCCCC3)cc3c(=O)n4ccccc4nc32)cc1`, the activity change, negative = inhibition was inconclusive: -45.9%. With `Cc1n[nH]c(=O)c2c(NC(=O)COC(=O)/C=C/c3cccc(C(F)(F)F)c3)oc(C)c12` the activity change, negative = inhibition was inactive: 18.1%. With `CCCC(=O)Nc1ccc2oc(=O)ccc2c1` the activity change, negative = inhibition was inconclusive: -52.7%. In the case of `COC(=O)Cc1ccc(NC(=S)NCc2ccccc2Cl)cc1`, the activity change, negative = inhibition was inconclusive: -43.9%. With `CCN1CCN(C(=S)c2ccc(Cl)cc2)CC1` the activity change, negative = inhibition was inactive: 0.733%. In the case of `O=C(Nc1ccc(Br)cn1)c1cccc2ccccc12`, the activity change, negative = inhibition was inactive: -6.07%. With `CCC(=O)c1ccc(N2CCCCCC2)c(F)c1` the activity change, negative = inhibition was inconclusive: -43.8%. With `Cc1cccc(OCC(=O)Nc2ccccc2C(F)(F)F)c1` the activity change, negative = inhibition was inconclusive: -45.8%. For `N#C/C(=C/c1ccc(OCc2ccc(C(=O)O)cc2)c(Br)c1)c1cccc(F)c1`, the activity change, negative = inhibition was inconclusive: -54.8%. With `C[C@H](O)[C@H](O)[C@H]1CNc2nc(N)[nH]c(=O)c2N1` the activity change, negative = inhibition was inconclusive: -48.1%. In the case of `O=C(NCCCN1CCN(c2ccc(F)cc2)CC1)NC12CC3CC(CC(C3)C1)C2`, the activity change, negative = inhibition was active: -79.4%. For `CCOC(=O)c1cc2c(nc1N)CCCC2`, the activity change, negative = inhibition was inconclusive: -43.4%. With `c1ccc(OCCCc2nc(-c3ccccn3)no2)cc1` the activity change, negative = inhibition was active: -106%. In the case of `Cc1cc(Nc2cccc(Cl)c2)nc2ccc(NC(=O)c3cccnc3)cc12`, the activity change, negative = inhibition was active: -98.1%. With `Nc1c(C(=O)NCCN2CCOCC2)c2nc3ccccc3nc2n1-c1cccc(F)c1` the activity change, negative = inhibition was inconclusive: -41.8%. With `O=C(N/N=C/c1sc(N2CCOCC2)nc1-c1ccccc1)c1ccc(O)cc1` the activity change, negative = inhibition was inactive: 48.9%. In the case of `COC(=O)c1ccccc1NC(=O)C/C(C)=N/NC(=O)Cc1ccc(Cl)cc1`, the activity change, negative = inhibition was inconclusive: -51%. With `O=S(=O)(NCc1cn2ccsc2n1)c1ccc(Oc2ccccc2)cc1` the activity change, negative = inhibition was inconclusive: -45.5%. For `COc1ccc(C(=O)OCCCc2cc3ccccc3c(=O)o2)cc1`, the activity change, negative = inhibition was inconclusive: -47%. With `CC1CC(C)CN(C(=O)COC(=O)c2ccc3c(c2)OCO3)C1` (stereo not drawn) the activity change, negative = inhibition was inconclusive: -41.8%. With `Cc1cccc(NC(=O)C2C(c3ccccc3)C2(Cl)Cl)c1` (stereo not drawn) the activity change, negative = inhibition was inconclusive: -55.3%. In the case of `Cc1ccc2c(CN(C)Cc3ccc(Cl)cc3Cl)cc(=O)oc2c1`, the activity change, negative = inhibition was inactive: -28.7%. In the case of `COc1ccc(F)cc1S(=O)(=O)NCCc1sc2nc(-c3ccc(F)cc3)nn2c1C`, the activity change, negative = inhibition was inconclusive: -44.7%. In the case of `CC12CCC(C[N+](C)(C)C1)C2(C)C` (stereo not drawn), the activity change, negative = inhibition was inconclusive: -47.5%. In the case of `Cc1[nH]c(=O)c(C#N)cc1-c1csc(-c2ccccc2)n1`, the activity change, negative = inhibition was inactive: 10.4%. In the case of `COc1cc(CN2CC(C)CC(C)C2)cc([N+](=O)[O-])c1O` (stereo not drawn), the activity change, negative = inhibition was inconclusive: -51%. In the case of `CC[C@@H]1C/C=C\Cc2ccccc2[C@H](C(=O)C[C@H](O)CC(C)=O)OC1=O`, the activity change, negative = inhibition was inactive: -32.3%. For `Cn1c(=O)[nH]c(Nc2ccccc2)c([N+](=O)[O-])c1=O`, the activity change, negative = inhibition was active: -93.8%. In the case of `COC(=O)c1c(NC(=O)CN2CCC3(O)CCCCC3C2c2ccc(OC)cc2OC)sc(C)c1C` (stereo not drawn), the activity change, negative = inhibition was inconclusive: -47.3%. In the case of `CC(C)(Oc1ccc(Cl)cc1)C(=O)N(Cc1ccccc1)c1ccccn1`, the activity change, negative = inhibition was inconclusive: -40.6%. In the case of `CCCCN(C)C(=O)c1ccc(Nc2nc(C(N)COCc3ccccc3)cs2)nc1` (stereo not drawn), the activity change, negative = inhibition was inactive: -8%. With `Cc1ccc2c(c1)c1ccc3c(c1n2C)C(=O)C=CC3=O` the activity change, negative = inhibition was inconclusive: -50%. In the case of `O=C(Nc1ccccc1C(=O)N1CCCCCC1)c1ccc(F)cc1`, the activity change, negative = inhibition was active: -102%. For `Cc1ccc(C(=O)N2CCN(c3nc4ccccc4n3C)CC2)cc1`, the activity change, negative = inhibition was active: -61.5%. For `CCN(CC)S(=O)(=O)c1ccc(N/N=C/c2ccc(O)cc2)nc1`, the activity change, negative = inhibition was inconclusive: -49.4%. For `O=S(=O)(Nc1cccc2c1CCCC2)c1cccc(C(F)(F)F)c1`, the activity change, negative = inhibition was inconclusive: -42%. With `c1ccc2c(c1)nnn2Cn1nnc2ccccc21` the activity change, negative = inhibition was active: -63%. In the case of `CC(C)(C)N=C1NN=C(c2ccc(S(=O)(=O)N3CCCCC3)cc2)CS1`, the activity change, negative = inhibition was inactive: -7.2%. For `O=C(CN1CCN(C(=O)CNC(=O)c2ccc(-c3ccccc3)cc2)CC1)Nc1ccccc1Cl`, the activity change, negative = inhibition was inconclusive: -56.1%. With `CCOC(=O)c1c(C)nc2sc(C(=O)Nc3ccc(OC)cc3)c(N)c2c1-c1ccc(OC)cc1` the activity change, negative = inhibition was inconclusive: -51.3%. In the case of `CC1CCc2sc3ncnc(N4CCOCC4)c3c2C1` (stereo not drawn), the activity change, negative = inhibition was inconclusive: -56.7%. For `O=C(Cc1ccc(F)cc1)NCCS(=O)(=O)N1CCN(c2cccc(Cl)c2)CC1`, the activity change, negative = inhibition was inactive: -34.6%. With `O=c1c2ccccc2c(-c2cccc(C(F)(F)F)c2)nn1-c1ccccc1` the activity change, negative = inhibition was inactive: -3.75%. For `Nc1cnn(Cc2ccccc2F)c1`, the activity change, negative = inhibition was inconclusive: -41.1%. With `O=C(c1ccco1)N1CCN(S(=O)(=O)c2ccc(Br)cc2)CC1` the activity change, negative = inhibition was inconclusive: -41.9%. In the case of `O=C(Cn1c(=O)oc2cc(S(=O)(=O)N3CCCC3)ccc21)N1CCN(C2CCCCC2)CC1`, the activity change, negative = inhibition was inconclusive: -48.5%. In the case of `CCOC(=O)c1c(-c2ccccc2)oc2ccc(O)cc12`, the activity change, negative = inhibition was inactive: -0.982%. In the case of `COc1ccc(C(CCNC(C)c2ccccc2)c2ccc(F)cc2)cc1` (stereo not drawn), the activity change, negative = inhibition was inconclusive: -43.2%. In the case of `CC(=O)NC(CC(=O)N(C)C1CCCCC1)c1ccccc1` (stereo not drawn), the activity change, negative = inhibition was inactive: 25.4%. In the case of `c1ccc(Cn2c(-c3cccs3)nc3nc4ccccc4nc32)cc1`, the activity change, negative = inhibition was inconclusive: -45.2%. For `CC[C@@H](CC1CCCCC1)C(=O)N(Cc1ccccc1)c1ccccc1`, the activity change, negative = inhibition was inconclusive: -42.7%. For `CC(=O)OCc1c(F)c(F)c(-n2nc(C)cc2C)c(F)c1F`, the activity change, negative = inhibition was inactive: 22.6%. For `CCN1CCN(c2ccc(Cl)cc2NC(=O)c2ccc(-n3nc(C)cc3C)cc2)CC1`, the activity change, negative = inhibition was inactive: 0.68%. In the case of `CSc1ncc(C(=O)Nc2ccccc2Cl)c(C)n1`, the activity change, negative = inhibition was inconclusive: -52.9%. With `Cc1ccc(OCc2cc(C(=O)NCc3cn4ccccc4n3)no2)cc1C` the activity change, negative = inhibition was inconclusive: -44.4%. With `CCCCNC(=O)C1Cc2cc(S(=O)(=O)N3CCCC3)ccc2N1C(C)=O` (stereo not drawn) the activity change, negative = inhibition was inconclusive: -40.3%. With `CCCCn1c(SCC(=O)N(CC)C2CCS(=O)(=O)C2)nc2cc(S(N)(=O)=O)ccc21` (stereo not drawn) the activity change, negative = inhibition was inconclusive: -45.6%. For `C=CCn1c(C)cc(/C([O-])=C(/C(=S)Nc2ccc(OC(F)F)cc2)[n+]2ccc(N(C)C)cc2)c1C`, the activity change, negative = inhibition was inconclusive: -41.1%. In the case of `CC1CCN(C(=O)C2CCCN2S(=O)(=O)c2ccc(Cl)cc2)CC1` (stereo not drawn), the activity change, negative = inhibition was inconclusive: -44.3%. In the case of `O=c1c2ccccc2nc(-c2cccs2)n1-c1ccccc1`, the activity change, negative = inhibition was inactive: 2.47%. With `COc1cccc(CNC(=O)CCC2CCCN(C(=O)c3cccnc3SC)C2)c1` (stereo not drawn) the activity change, negative = inhibition was inactive: 13.5%. For `Nc1nc2c(s1)CCc1ccccc1-2`, the activity change, negative = inhibition was inactive: -16%. In the case of `CCCn1c2ccccc2c2cnn(CC(=O)N3CCC(C)CC3)c(=O)c21`, the activity change, negative = inhibition was inconclusive: -53.9%. In the case of `CCOC(=O)c1c(-c2ccccc2)oc2cc(CN(C)C)c(O)c(CN(C)C)c12`, the activity change, negative = inhibition was active: -106%. In the case of `CC/C(=N\NC(=O)COc1ccc(Br)cc1)c1ccc(OC)c(OC)c1`, the activity change, negative = inhibition was inconclusive: -46.1%. With `COc1cc(CNc2ccc(N3CCCC3)cc2)ccc1OCc1ccccc1` the activity change, negative = inhibition was inactive: -1.6%. For `O=C1COc2ccc(C(=O)COC(=O)Cc3ccc(Cl)cc3)cc2N1`, the activity change, negative = inhibition was inconclusive: -50%. With `CN(C)c1cccc(C(=O)OCCCC(=O)c2ccc(F)cc2)c1` the activity change, negative = inhibition was inactive: 2.12%.
